Here are results for two molecules from publication PMC7784988.

Experiment [1] deals with T1, GST-tagged recombinant mouse TNC (1–700aa) (mouse) (UniProt Q80YX1).
T1 sequence: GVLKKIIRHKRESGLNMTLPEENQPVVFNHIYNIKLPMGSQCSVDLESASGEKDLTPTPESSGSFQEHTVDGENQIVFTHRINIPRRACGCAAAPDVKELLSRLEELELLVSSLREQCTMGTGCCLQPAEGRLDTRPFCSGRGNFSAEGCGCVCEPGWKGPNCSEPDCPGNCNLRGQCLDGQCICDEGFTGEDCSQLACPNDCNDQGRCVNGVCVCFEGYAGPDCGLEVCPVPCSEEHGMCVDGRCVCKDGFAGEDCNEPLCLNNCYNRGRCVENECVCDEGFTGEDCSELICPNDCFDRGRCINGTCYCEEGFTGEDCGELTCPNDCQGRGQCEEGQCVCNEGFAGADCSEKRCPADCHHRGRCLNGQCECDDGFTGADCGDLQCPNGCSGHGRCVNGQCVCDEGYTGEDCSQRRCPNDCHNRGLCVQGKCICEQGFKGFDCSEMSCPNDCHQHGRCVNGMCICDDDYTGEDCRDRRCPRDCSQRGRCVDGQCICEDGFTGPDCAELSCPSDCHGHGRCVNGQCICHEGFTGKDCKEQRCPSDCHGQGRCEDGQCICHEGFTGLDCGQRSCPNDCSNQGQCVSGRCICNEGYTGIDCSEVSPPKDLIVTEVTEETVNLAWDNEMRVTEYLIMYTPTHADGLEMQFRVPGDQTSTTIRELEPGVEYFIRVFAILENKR
The experiment is described as follows: pull-down; 500 ng/mL GST-tagged TNC (1-700aa) added to the culture medium of MuSCs for 4 h; cells washed and lysed (1% Triton X-100, 150 mM NaCl, 20 mM Tris/HCl pH 7.4, 5% glycerol); glutathione Sepharose 4B beads at 4 °C overnight; immunoblot with anti-EGFR; only the target purified.

The target of experiment [2] is T1, GST-tagged recombinant mouse TNC (1–700aa) (mouse). The experiment is described as follows: SEC; Superose 6 Increase 10/300 GL in PBS/Az, 0.3 mL/min, HMW calibration kit as mass standards; proteins eluted from glutathione beads with 30 mM GSH; both purified.

Results are given in words; binding and its absence hold for the method and conditions named. For some assays here: Binding seen in cells or lysates may run through a third protein. Some results given as binding are weak or reduced against the parent protein; the word gives no strength. Sequences can lack the tags named with a protein.

With “EGF receptor (EGFR) (from UniProt Q01279 25-1210)”, the binding entry in experiment [1] is given as “binds”.

B1: GST-tagged recombinant mouse TNC (1–700aa) (domain or fragment, UniProt Q80YX1 23-700)
chain: T1 sequence
In the case of B1, the binding entry in experiment [2] is reported as “binds”.
